Source: publication PMC10163045
Results are given in words; binding and its absence hold for the method and conditions named. Some binding calls cover weakened binding; strength is not graded here.

Molecular target: T1, bZIP63 (Arabidopsis thaliana) (UniProt B9DGI8)
T1 sequence: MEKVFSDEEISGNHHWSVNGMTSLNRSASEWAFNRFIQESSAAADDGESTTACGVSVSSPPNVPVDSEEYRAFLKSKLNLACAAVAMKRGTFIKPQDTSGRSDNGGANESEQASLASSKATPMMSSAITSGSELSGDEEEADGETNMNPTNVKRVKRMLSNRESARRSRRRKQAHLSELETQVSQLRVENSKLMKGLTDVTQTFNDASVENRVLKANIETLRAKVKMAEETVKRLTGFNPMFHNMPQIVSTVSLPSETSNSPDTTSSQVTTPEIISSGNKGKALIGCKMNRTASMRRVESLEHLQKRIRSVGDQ
Assay: sequential DNA affinity purification with sequencing (sDAP-seq); SBPTag- and HaloTag-fused bZIPs co-expressed in vitro, incubated with adapter-ligated genomic DNA 1 h at room temperature; captured on streptavidin magnetic beads, eluted with 10 μM biotin, then captured on Halo beads; the bound DNA was sequenced

binding: binds
B1: bZIP53 (protein, UniProt Q9LZP8 1-146)
chain: MGSLQMQTSPESDNDPRYATVTDERKRKRMISNRESARRSRMRKQKQLGDLINEVTLLKNDNAKITEQVDEASKKYIEMESKNNVLRAQASELTDRLRSLNSVLEMVEEISGQALDIPEIPESMQNPWQMPCPMQPIRASADMFDC
